Results from article PMC8316464.
These are yes or no findings as the source states them, for the method shown. For some assays here: Tags and fused reporters may be left off the sequences shown.

T1: Bcl-w (human) (UniProt Q92843)
T1 sequence: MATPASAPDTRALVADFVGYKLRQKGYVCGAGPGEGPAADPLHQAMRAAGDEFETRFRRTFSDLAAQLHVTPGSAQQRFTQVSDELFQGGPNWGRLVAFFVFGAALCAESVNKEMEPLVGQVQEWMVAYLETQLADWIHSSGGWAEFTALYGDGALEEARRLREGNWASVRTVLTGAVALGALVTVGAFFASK

T2: Bfl-1 (human) (UniProt Q16548)
T2 sequence: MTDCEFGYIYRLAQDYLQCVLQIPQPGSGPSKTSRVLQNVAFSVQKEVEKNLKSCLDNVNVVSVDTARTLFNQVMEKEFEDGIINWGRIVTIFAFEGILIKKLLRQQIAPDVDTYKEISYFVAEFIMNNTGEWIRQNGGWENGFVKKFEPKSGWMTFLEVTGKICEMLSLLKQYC


What was measured:
[1] = molecular target: T1, Bcl-w (human); assay: SPR; Biacore S200; Bcl-2 family proteins immobilised on CM5 (amine coupling or His-Capture Kit); peptides and flag-tagged proteins as analytes, single-cycle kinetics, HBS-EP, 25 °C; 1:1 Langmuir model; absence of binding probed at 100 nM and 3 µM; both purified
[2] = molecular target: T2, Bfl-1 (human); assay: as above
[3] = molecular target: ApoL1-NTD cleaved between L88 and T89 during crystallization (protomer in the Fab7D6:ApoL1-NTD crystal) (human) (UniProt O14791); assay: crystal structure; Fab complexes formed with 1.5 molar excess of NTD and purified on Superdex-200 in 0.15 M NaCl, 25 mM Tris pH 8.0, about 10 mg/ml; Fab7D6 also crystallised with the synthetic peptide E152–H169; both purified
[4] = molecular target: flag-tagged ApoL1-NTD (D61–T172) (human) (UniProt O14791); assay: SEC-MALS; XBridge BEH 200 Å column in PBS, 0.02% sodium azide, 1 ml/min; complex formed with a twofold molar excess of ApoL1-NTD (46.8 µM) over Fab7D6, 30 min at room temperature; components also run alone; both purified

| binding [1] | binding [2] | binding [3] | binding [4] | Binder |
| --- | --- | --- | --- | --- |
| no binding (tested: up to 3 µM) | no binding (tested: up to 3 µM) | – | – | RLKSELEDNIRRLRALADGVQKVHK [ApoL1-BH3 peptide (25-mer, residues 146-170)] |
| no binding (tested: up to 3 µM) | no binding (tested: up to 3 µM) | – | – | full-length ApoL1 with N-terminal flag-tag (protein, UniProt O14791-1 28-398) EEAGARVQQNVPSGTDTGDPQSKPLGDWAAGTMDPESSIFIEDAIKYFKEKVSTQNLLLLLTDNEAWNGFVAAAELPRNEADELRKALDNLARQMIMKDKNWHDKGQQYRNWFLKEFPRLKSELEDNIRRLRALADGVQKVHKGTTIANVVSGSLSISSGILTLVGMGLAPFTEGGSLVLLEPGMELGITAALTGITSSTMDYGKKWWTQAQAHDLVIKSLDKLKEVREFLGENISNFLSLAGNTYQLTRGIGKDIRALRRARANLQSVPHASASRPRVTEPISAESGEQVERVNEPSILEMSRGVKLTDVAPVSFFLVLDVVYLVYESKHLHEGAKSETAEELKKVAQELEEKLNILNNNYKILQADQEL |
| no binding (tested: up to 3 µM) | no binding (tested: up to 3 µM) | – | – | flag-tagged ApoL2-NTD (N2-T113) (domain or fragment, UniProt Q9BQE5 2-113) NPESSIFIEDYLKYFQDQVSRENLLQLLTDDEAWNGFVAAAELPRDEADELRKALNKLASHMVMKDKNRHDKDQQHRQWFLKEFPRLKRELEDHIRKLRALAEEVEQVHRGT |
| no binding (tested: up to 3 µM) | no binding (tested: up to 3 µM) | – | no binding | flag-tagged ApoL1-NTD (D61–T172) (domain or fragment, UniProt O14791 61-172) DPESSIFIEDAIKYFKEKVSTQNLLLLLTDNEAWNGFVAAAELPRNEADELRKALDNLARQMIMKDKNWHDKGQQYRNWFLKEFPRLKSELEDNIRRLRALADGVQKVHKGT |

Further lines, the binder ahead of its results:

| Binder | binding [1] | binding [2] | binding [3] | binding [4] |
| --- | --- | --- | --- | --- |
| RLKSELEDNARRLRALADGVQKVHK [ApoL1-BH3 (I155A) peptide] | no binding (tested: up to 3 µM) | no binding (tested: up to 3 µM) | – | – |
| ApoL1-NTD cleaved between L88 and T89 during crystallization (protomer in the Fab7D6:ApoL1-NTD crystal) (domain or fragment, UniProt O14791 89-172) TDNEAWNGFVAAAELPRNEADELRKALDNLARQMIMKDKNWHDKGQQYRNWFLKEFPRLKSELEDNIRRLRALADGVQKVHKGT | – | – | no binding | – |
| RLKRELEDHIRKLRALAEEVEQVHR [ApoL2-BH3 peptide (25-mer, residues 87-111)] | no binding (tested: up to 3 µM) | no binding (tested: up to 3 µM) | – | – |
